{"source": "the supplement of paper PMC12067093", "about": "“Discovery and optimisation of a covalent ligand for TRIM25 and its application to targeted protein ubiquitination” (Chemical Science, 2025)", "note": "The other results are listed elsewhere or left out.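 Note: competitive chemoproteomic profiling in live THP-1 cells with an iodoacetamide desthiobiotin (IA-DTB) probe, comparing probe-labelled peptide intensities in compound-treated cells against DMSO-treated controls.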"}
{"compound": "CC1Cc2ccccc2N1C(=O)C1CCCN(C1)C(=O)CCl (mixture of isomers) [TRIM25 ligand 11 (diastereomer mixture)]", "test": "probe-labelled cysteine peptide fold change vs DMSO (competition) (log2 fold change); higher = less target engagement (more negative = stronger competition)", "details": "50 µM; THP-1; incubation time: 4 h"}
{"target": "G6PD_P11413_232_DNIACVILTFK (UniProt P11413)", "probe-labelled cysteine peptide fold change": 0.466}
{"target": "FUBP3_Q96I24_310_CQHAAHIISELILTAQER (UniProt Q96I24)", "probe-labelled cysteine peptide fold change": -0.0571}
{"target": "FLNB_O75369_2057_VDIQTEDLEDGTCK (UniProt O75369)", "probe-labelled cysteine peptide fold change": 0.0249}
{"target": "G3BP2_Q9UN86_73_VLSLNFSECHTK (UniProt Q9UN86)", "probe-labelled cysteine peptide fold change": -0.0874}
{"target": "FLII_Q13045_46_TGLCYLPEELAALQK (UniProt Q13045)", "probe-labelled cysteine peptide fold change": 0.154}
{"target": "FKBP1A_P62942_23_RGQTCVVHYTGMLEDGK (UniProt P62942)", "probe-labelled cysteine peptide fold change": -0.173}
{"target": "FXR1_P51114_129_CTVDVPEDLR (UniProt P51114)", "probe-labelled cysteine peptide fold change": 0.0786}
{"target": "FRMD8_Q9BZ67_206_EKLDSFLPAHLCK (UniProt Q9BZ67)", "probe-labelled cysteine peptide fold change": -0.206}
{"target": "FHL3_Q13643_10_CNESLYGR (UniProt Q13643)", "probe-labelled cysteine peptide fold change": 0.144}
{"target": "FRG1_Q14331_205_QCEINYVK (UniProt Q14331)", "probe-labelled cysteine peptide fold change": -0.202}
{"target": "FOXK1_P85037_439_SGGLQTPECLSR (UniProt P85037)", "probe-labelled cysteine peptide fold change": -0.3}
{"target": "FOXP1_Q9H334_29_SNGSAIQNGSGGSNHLLECGGLR (UniProt Q9H334)", "probe-labelled cysteine peptide fold change": -0.145}
{"target": "FNBP1L_Q5T0N5_543_GPPQQHGHHNEFDDEFEDDDPLPAIGHCK (UniProt Q5T0N5)", "probe-labelled cysteine peptide fold change": -0.406}
{"target": "FHL3_Q13643_251_HWHHNCFSCAR (UniProt Q13643)", "probe-labelled cysteine peptide fold change": 0.139}
{"target": "FUCA1_P04066_296_FKPQSLPDHKWEMCTSIDK (UniProt P04066)", "probe-labelled cysteine peptide fold change": -0.32}
{"target": "FNBP1_Q96RU3_609_NEDEEGYVPTSYVEVCLDK (UniProt Q96RU3)", "probe-labelled cysteine peptide fold change": -0.0917}
{"target": "FRYL_O94915_2160_DCSNWINVVCR (UniProt O94915)", "probe-labelled cysteine peptide fold change": 0.113}
{"target": "FTSJ3_Q8IY81_52_ALLDLCAAPGGWLQVAAK (UniProt Q8IY81)", "probe-labelled cysteine peptide fold change": -0.0549}
{"target": "FRY_Q5TBA9_869_HCPTALSYAWPYAFTR (UniProt Q5TBA9)", "probe-labelled cysteine peptide fold change": 0.0583}
{"target": "FHL2_Q14192_7_FDCHHCNESLFGK (UniProt Q14192)", "probe-labelled cysteine peptide fold change": 0.126}
{"target": "FHOD1_Q9Y613_43_APTCSLDGALPLGAQIPAVHR (UniProt Q9Y613)", "probe-labelled cysteine peptide fold change": 0.151}
{"target": "FHOD1_Q9Y613_936_LTHFLDQCAR (UniProt Q9Y613)", "probe-labelled cysteine peptide fold change": 0.128}
{"target": "FUBP1_Q96AE4_132_IQQESGCK (UniProt Q96AE4)", "probe-labelled cysteine peptide fold change": 0.446}
{"target": "FKBP15_Q5T1M5_1031_DGSLPPELSCIPSHR (UniProt Q5T1M5)", "probe-labelled cysteine peptide fold change": -0.0562}
{"target": "FOCAD_Q5VW36_392_QQLALNLLEMIQQECYR (UniProt Q5VW36)", "probe-labelled cysteine peptide fold change": -0.0498}
{"target": "FPGS_Q05932_111+116_GSTCAFTECILR (UniProt Q05932)", "probe-labelled cysteine peptide fold change": 0.109}
{"target": "FSCN1_Q16658_19_TANGTAEAVQIQFGLINCGNK (UniProt Q16658)", "probe-labelled cysteine peptide fold change": 0.102}
{"target": "G6PC3_Q9BUM1_269_DSGAALGLGIALHSPCYAQVR (UniProt Q9BUM1)", "probe-labelled cysteine peptide fold change": 0.0953}
{"target": "FYCO1_Q9BQS8_709+719_EGECQQLREEVEQCQQLAEAR (UniProt Q9BQS8)", "probe-labelled cysteine peptide fold change": -0.236}
{"target": "FLNB_O75369_2333_VHSPSGAVEECHVSELEPDK (UniProt O75369)", "probe-labelled cysteine peptide fold change": -0.208}
{"target": "FHL1_Q13642_65_FWHDTCFR (UniProt Q13642)", "probe-labelled cysteine peptide fold change": -0.0125}
{"target": "FKBP8_Q14318_195_SPYIPPHAALCLEVTLK (UniProt Q14318)", "probe-labelled cysteine peptide fold change": 0.193}
{"target": "G6PD_P11413_446_LILDVFCGSQMHFVR (UniProt P11413)", "probe-labelled cysteine peptide fold change": 0.0353}
{"target": "FTH1_P02794_91_KPDCDDWESGLNAMECALHLEK (UniProt P02794)", "probe-labelled cysteine peptide fold change": 0.847}
{"target": "FUCA2_Q9BTY2_294_WENCMTIDK (UniProt Q9BTY2)", "probe-labelled cysteine peptide fold change": 0.0164}
{"target": "FLAD1_Q8NFF5_561_CLSPGGHPTYRPAYLLENEEEER (UniProt Q8NFF5)", "probe-labelled cysteine peptide fold change": 0.271}
